Values of other authors in US8183246B2, “Acyclically substituted furopyrimidine derivatives and use thereof” (Bayer Intellectual Property GmbH, priority 2005, dated 2012).

Conditions: rapid non-enzymatic transformation to 6-keto-prostaglandin-F1alpha; cited from earlier work

CCCCC[C@H](O)/C=C/[C@@H]1[C@H]2C/C(=C/CCCC(=O)O)O[C@H]2C[C@H]1O [PGI2, Prostacyclin]
half-life: approx. 3 minutes
